Reference: the supplement of paper PMC10011410
These are raw signals, not scaled to a control.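 Every value is the mean of three technical replicates on separate plates. Each plate had reagent-free control wells to correct for cellular autofluorescence, plus DMSO-treated vehicle control wells. These live-cell readings have no defined active or hit threshold.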

What was measured:
U-2 OS [1] = experiment: AUC of caspase 3/7-positive object count (AUC (object count x time)); higher = more apoptotic or dead cells
Experimental: (§1)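 Live-cell Incucyte imaging of U-2 OS cells with Caspase-3/7 Green and Cytotox Red reagents. Compounds were tested mostly at 5, 10 and 20 uM, and cells were imaged every 4 h for up to 60 h. Value is the area under the curve of positive object counts over time, per channel: green = caspase 3/7, red = membrane-compromised, overlap = both.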

U-2 OS [2] = experiment: AUC of Cytotox red (membrane-compromised) object count (AUC (object count x time)); higher = more apoptotic or dead cells
Experimental: as §1

| Structure (SMILES) | AUC of caspase 3/7-positive object count (U-2 OS [1]; 5 µM) | AUC of caspase 3/7-positive object count (U-2 OS [1]; 10 µM) | AUC of caspase 3/7-positive object count (U-2 OS [1]; 20 µM) | AUC of Cytotox red (U-2 OS [2]; 5 µM) | AUC of Cytotox red (U-2 OS [2]; 10 µM) | AUC of Cytotox red (U-2 OS [2]; 20 µM) | AUC of caspase 3/7-positive object count (U-2 OS [1]; 40 µM) | AUC of caspase 3/7-positive object count (U-2 OS [1]; 80 µM) | AUC of Cytotox red (U-2 OS [2]; 40 µM) | AUC of Cytotox red (U-2 OS [2]; 80 µM) | AUC of caspase 3/7-positive object count (U-2 OS [1]; 0.625 µM) | AUC of caspase 3/7-positive object count (U-2 OS [1]; 1.25 µM) | AUC of caspase 3/7-positive object count (U-2 OS [1]; 2.5 µM) | AUC of Cytotox red (U-2 OS [2]; 0.625 µM) | AUC of Cytotox red (U-2 OS [2]; 1.25 µM) | AUC of Cytotox red (U-2 OS [2]; 2.5 µM) |
| --- | --- | --- | --- | --- | --- | --- | --- | --- | --- | --- | --- | --- | --- | --- | --- | --- |
| C=CC(=O)Nc1cc2c(Nc3ccc(F)c(Cl)c3)ncnc2cc1OCCCN1CCOCC1 | 502 | 1150 | 1090 | 252 | 886 | 1220 | – | – | – | – | – | – | – | – | – | – |
| S=P(N1CC1)(N1CC1)N1CC1 | 23.1 | 9.6 | 19.9 | 59.7 | 37.6 | 47.8 | – | – | – | – | – | – | – | – | – | – |
| COc1cc(=O)oc(/C=C/C=C/C=C/C(C)=C/[C@]2(C)O[C@H](C)[C@](C)(O)[C@H]2O)c1C | 20.1 | 59.1 | 39.3 | 38.8 | 71.2 | 67.4 | – | – | – | – | – | – | – | – | – | – |
| O=C(CBr)N1CC([N+](=O)[O-])([N+](=O)[O-])C1 | 49.2 | 34.3 | 29 | 51.3 | 48.7 | 57.4 | – | – | – | – | – | – | – | – | – | – |
| O=C(OCC)/C(C(OCC)=O)=C\CCCCCCCCCCCCCC | 57.1 | 67.5 | 60.1 | 35.7 | 37.6 | 25.1 | 36 | 56.7 | 23.8 | 49 | – | – | – | – | – | – |
| C[C@@H]1O[C@@H](O[C@H]2[C@H](OC(=O)[C@]34CCC(C)(C)C[C@H]3C3=CC[C@@H]5[C@@]6(C)C[C@H](O)[C@H](O[C@@H]7O[C@H](CO)[C@@H](O)[C@H](O)[C@H]7O)[C@@](C)(CO)[C@@H]6CC[C@@]5(C)[C@]3(C)CC4)O[C@H](CO)[C@@H](O)[C@@H]2O)[C@H](O)[C@H](O)[C@H]1O[C@@H]1OC[C@@H](O)[C@H](O)[C@H]1O | 64 | 46.7 | 27.1 | 51.1 | 35.6 | 23.9 | – | – | – | – | – | – | – | – | – | – |
| O=C(O[C@@H]1O[C@@H]2COC(=O)c3cc(O)c(O)c(O)c3-c3c(cc(O)c(O)c3O)C(=O)O[C@H]([C@H]1O)[C@@H]2O)c1cc(O)c(O)c(O)c1 | 20.1 | 12.4 | 17.2 | 0.289 | 4 | 0.0807 | – | – | – | – | – | – | – | – | – | – |
| Cn1nnnc1SC1=CS(=O)(=O)c2ccccc21 | 178 | 946 | 1140 | 252 | 1180 | 1600 | – | – | – | – | – | – | – | – | – | – |
| COC(=O)Nc1nc2ccc(C(=O)c3cccs3)cc2[nH]1 | 488 | 528 | 834 | 523 | 523 | 721 | – | – | – | – | 404 | 406 | 540 | 422 | 440 | 596 |
| CC(C)[C@H]1OC(=O)[C@H](Cc2ccccc2)N(C)C(=O)[C@@H](C(C)C)OC(=O)[C@H](Cc2ccccc2)N(C)C(=O)[C@@H](C(C)C)OC(=O)[C@H](Cc2ccccc2)N(C)C1=O | 552 | 206 | 614 | 1030 | 318 | 1880 | – | – | – | – | – | – | – | – | – | – |
| Nc1nccc2c1ncn2[C@@H]1C=C(CO)[C@@H](O)[C@H]1O | 68.3 | 53.6 | 79.7 | 42.7 | 37.3 | 81.8 | – | – | – | – | – | – | – | – | – | – |
| O=c1c(O)c(-c2ccc(O)c(O)c2)oc2cc(O)cc(O)c12 | 33.3 | 57.9 | 104 | 19.7 | 22.6 | 3.88 | – | – | – | – | – | – | – | – | – | – |
| O=C(O)C1=CC(=C(c2ccc(O)c(C(=O)O)c2)c2ccc(O)c(C(=O)O)c2)C=CC1=O | 67.8 | 55.9 | 28.3 | 27.5 | 14 | 3.71 | – | – | – | – | – | – | – | – | – | – |
| Cc1[nH]c2ccccc2c1CCNCc1ccc(/C=C/C(=O)NO)cc1 | 914 | 1000 | 1020 | 981 | 1300 | 1490 | – | – | – | – | – | – | – | – | – | – |
| C[C@H]1O[C@@H](O[C@H]2CC[C@@]3(C)[C@@H](CC[C@]4(C)[C@@H]3C=C[C@]35OC[C@@]6(CCC(C)(C)C[C@H]63)[C@@H](O)C[C@]54C)[C@]2(C)CO)[C@H](O)[C@@H](O[C@@H]2O[C@H](CO)[C@@H](O)[C@H](O)[C@H]2O)[C@H]1O | 159 | 123 | 138 | 999 | 2050 | 1250 | – | – | – | – | – | – | – | – | – | – |
| Nc1c[n+](N2CCOCC2)no1.[Cl-] | 36.9 | 27.1 | 27.3 | 39.4 | 42.2 | 33 | – | – | – | – | – | – | – | – | – | – |
| CN(C)/N=N/c1nc[nH]c1C(N)=O | 20.2 | 10.5 | 18 | 42.1 | 42.3 | 77.7 | – | – | – | – | – | – | – | – | – | – |
| CN1CCN(CCOc2cc(OC3CCOCC3)c3c(Nc4c(Cl)ccc5c4OCO5)ncnc3c2)CC1 | 213 | 238 | 256 | 118 | 137 | 181 | – | – | – | – | – | – | – | – | – | – |
| Cc1csc(=NC2CCCCC2)n1/N=C/c1ccc(O)c(O)c1O | 44.1 | 70.9 | 370 | 27.5 | 37.6 | 45.3 | – | – | – | – | – | – | – | – | – | – |
| CC(C)C[C@H](NC(=O)[C@H](CCc1ccccc1)NC(=O)CN1CCOCC1)C(=O)N[C@@H](Cc1ccccc1)C(=O)N[C@@H](CC(C)C)C(=O)[C@@]1(C)CO1 | 1280 | 1280 | 1210 | 806 | 972 | 1010 | – | – | – | – | – | – | – | – | – | – |
| Cc1cc(-c2ccccc2)cc(C(=O)NNS(=O)(=O)c2ccccc2)c1F | 55.7 | 47.5 | 48.2 | 32.1 | 32.3 | 30.6 | – | – | – | – | – | – | – | – | – | – |
| O=C(Nc1nc(-c2ccccc2)ns1)c1cccs1 | 38.6 | 55.4 | 34.6 | 43.4 | 43.9 | 31.5 | – | – | – | – | – | – | – | – | – | – |
| COC[C@H]1OC(=O)c2coc3c2[C@@]1(C)C1=C(C3=O)[C@@H]2CCC(=O)[C@@]2(C)C[C@H]1OC(C)=O | 75.6 | 99.5 | 434 | 60.7 | 75.1 | 299 | – | – | – | – | 49.8 | 47.5 | 65 | 38.8 | 35.2 | 47.7 |
| CC1OC2=C(C(=O)C(=O)c3ccccc32)C1(C)C (stereo not given) | 619 | 697 | 760 | 669 | 890 | 1020 | – | – | – | – | – | – | – | – | – | – |

Look-ups from the results shown:
Under AUC of Cytotox red (U-2 OS [2]; 20 µM), COC(=O)Nc1nc2ccc(C(=O)c3cccs3)cc2[nH]1 reads 721
Under AUC of caspase 3/7-positive object count (U-2 OS [1]; 20 µM), COc1cc(=O)oc(/C=C/C=C/C=C/C(C)=C/[C@]2(C)O[C@H](C)[C@](C)(O)[C@H]2O)c1C reads 39.3
